Results taken from the supplement of paper PMC10849652.
The list shows a part of the results.

Sequences of proteins named here, by UniProt entry; tags and fusion partners are left off. A change or cut given only in a name is not applied to a line headed by its entry.
UniProt P30414: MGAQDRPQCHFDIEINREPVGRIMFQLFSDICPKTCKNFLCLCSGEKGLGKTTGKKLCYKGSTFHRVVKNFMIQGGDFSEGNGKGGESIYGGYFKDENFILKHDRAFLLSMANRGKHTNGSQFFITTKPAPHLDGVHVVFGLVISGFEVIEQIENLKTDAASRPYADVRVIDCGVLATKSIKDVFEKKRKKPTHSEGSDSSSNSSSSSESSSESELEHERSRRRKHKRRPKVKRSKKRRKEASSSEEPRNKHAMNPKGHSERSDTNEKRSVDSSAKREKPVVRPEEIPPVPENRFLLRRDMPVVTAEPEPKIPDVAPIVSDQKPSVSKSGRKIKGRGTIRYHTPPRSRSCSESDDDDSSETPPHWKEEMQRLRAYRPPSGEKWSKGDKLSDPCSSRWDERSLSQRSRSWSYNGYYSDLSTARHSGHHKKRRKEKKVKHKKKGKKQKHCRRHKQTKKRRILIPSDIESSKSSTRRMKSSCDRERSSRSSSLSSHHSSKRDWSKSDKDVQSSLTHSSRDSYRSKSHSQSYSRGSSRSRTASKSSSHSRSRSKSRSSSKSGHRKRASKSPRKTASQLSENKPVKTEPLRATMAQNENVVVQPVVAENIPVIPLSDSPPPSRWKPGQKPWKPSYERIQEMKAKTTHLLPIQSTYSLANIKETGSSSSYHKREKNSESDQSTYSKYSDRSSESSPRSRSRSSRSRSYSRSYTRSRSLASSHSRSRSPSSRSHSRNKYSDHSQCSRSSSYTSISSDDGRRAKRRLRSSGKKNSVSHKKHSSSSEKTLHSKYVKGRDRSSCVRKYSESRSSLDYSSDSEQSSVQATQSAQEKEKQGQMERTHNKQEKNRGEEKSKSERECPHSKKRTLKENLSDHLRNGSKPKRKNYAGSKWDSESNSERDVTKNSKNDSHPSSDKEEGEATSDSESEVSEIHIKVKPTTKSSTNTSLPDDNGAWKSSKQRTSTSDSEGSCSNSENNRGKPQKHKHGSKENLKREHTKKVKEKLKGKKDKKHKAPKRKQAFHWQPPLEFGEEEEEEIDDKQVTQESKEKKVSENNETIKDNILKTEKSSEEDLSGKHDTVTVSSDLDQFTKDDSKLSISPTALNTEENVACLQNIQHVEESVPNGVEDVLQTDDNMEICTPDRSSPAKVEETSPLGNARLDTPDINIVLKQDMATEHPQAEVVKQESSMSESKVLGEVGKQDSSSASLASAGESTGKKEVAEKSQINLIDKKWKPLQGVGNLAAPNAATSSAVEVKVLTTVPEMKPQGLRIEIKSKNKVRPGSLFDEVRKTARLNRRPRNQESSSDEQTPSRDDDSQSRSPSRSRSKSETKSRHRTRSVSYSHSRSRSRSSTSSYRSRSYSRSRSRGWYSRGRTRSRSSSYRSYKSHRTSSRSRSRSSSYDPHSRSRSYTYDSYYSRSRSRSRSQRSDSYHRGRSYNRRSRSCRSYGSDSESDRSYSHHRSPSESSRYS
UniProt Q9NPE2: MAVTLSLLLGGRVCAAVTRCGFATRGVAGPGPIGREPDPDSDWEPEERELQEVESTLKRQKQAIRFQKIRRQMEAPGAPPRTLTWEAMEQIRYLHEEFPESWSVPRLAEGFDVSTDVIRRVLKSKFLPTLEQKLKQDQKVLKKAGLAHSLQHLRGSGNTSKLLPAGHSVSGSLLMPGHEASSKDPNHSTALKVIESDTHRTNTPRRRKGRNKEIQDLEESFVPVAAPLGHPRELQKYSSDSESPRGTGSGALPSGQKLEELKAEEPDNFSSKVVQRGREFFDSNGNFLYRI
UniProt Q16649: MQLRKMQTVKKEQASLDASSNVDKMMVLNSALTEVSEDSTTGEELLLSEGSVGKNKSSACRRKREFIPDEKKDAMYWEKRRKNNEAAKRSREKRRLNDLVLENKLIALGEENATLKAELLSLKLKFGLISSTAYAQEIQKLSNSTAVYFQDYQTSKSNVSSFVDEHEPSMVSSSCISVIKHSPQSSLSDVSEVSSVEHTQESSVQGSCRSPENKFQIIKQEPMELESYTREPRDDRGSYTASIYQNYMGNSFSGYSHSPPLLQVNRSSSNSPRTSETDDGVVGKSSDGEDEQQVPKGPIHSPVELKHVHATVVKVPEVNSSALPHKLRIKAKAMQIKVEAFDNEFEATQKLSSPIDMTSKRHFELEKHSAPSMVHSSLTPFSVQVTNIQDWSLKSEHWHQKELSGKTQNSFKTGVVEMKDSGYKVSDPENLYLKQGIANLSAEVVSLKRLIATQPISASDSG
UniProt Q14934: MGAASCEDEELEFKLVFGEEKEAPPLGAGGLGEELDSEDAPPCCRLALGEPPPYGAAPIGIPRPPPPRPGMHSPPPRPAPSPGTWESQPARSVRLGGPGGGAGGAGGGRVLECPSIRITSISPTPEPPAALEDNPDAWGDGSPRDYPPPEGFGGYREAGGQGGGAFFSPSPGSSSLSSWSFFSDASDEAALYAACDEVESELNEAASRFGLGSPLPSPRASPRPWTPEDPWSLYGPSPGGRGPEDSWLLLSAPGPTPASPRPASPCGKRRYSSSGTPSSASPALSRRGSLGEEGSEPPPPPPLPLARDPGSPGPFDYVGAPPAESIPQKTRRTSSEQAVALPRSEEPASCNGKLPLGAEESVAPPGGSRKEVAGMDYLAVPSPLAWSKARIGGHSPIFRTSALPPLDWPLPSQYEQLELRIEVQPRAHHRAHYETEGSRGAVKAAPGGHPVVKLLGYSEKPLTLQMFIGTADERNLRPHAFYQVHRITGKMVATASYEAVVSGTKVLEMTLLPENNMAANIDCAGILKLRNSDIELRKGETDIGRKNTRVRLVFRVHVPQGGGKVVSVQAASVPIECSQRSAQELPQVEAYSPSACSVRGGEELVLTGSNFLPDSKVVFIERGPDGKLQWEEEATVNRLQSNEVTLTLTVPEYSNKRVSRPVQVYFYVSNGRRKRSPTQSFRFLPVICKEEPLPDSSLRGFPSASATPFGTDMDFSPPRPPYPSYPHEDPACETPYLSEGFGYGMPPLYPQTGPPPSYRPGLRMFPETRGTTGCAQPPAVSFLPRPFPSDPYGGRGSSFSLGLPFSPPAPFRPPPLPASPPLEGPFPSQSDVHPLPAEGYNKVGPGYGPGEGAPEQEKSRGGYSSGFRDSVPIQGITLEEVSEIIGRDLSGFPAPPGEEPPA
UniProt O43181, whole entry, looked up: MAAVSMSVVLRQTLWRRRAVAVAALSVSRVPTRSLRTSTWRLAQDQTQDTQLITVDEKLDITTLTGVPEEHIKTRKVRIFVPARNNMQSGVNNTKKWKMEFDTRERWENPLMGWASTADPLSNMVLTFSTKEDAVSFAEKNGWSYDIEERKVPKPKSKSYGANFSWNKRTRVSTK
UniProt Q9UMX5: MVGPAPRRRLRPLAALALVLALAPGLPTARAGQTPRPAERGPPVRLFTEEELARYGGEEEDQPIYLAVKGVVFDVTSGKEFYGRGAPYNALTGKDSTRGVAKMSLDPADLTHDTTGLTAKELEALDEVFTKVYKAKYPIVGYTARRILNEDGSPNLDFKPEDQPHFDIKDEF
UniProt O43677, whole entry, looked up: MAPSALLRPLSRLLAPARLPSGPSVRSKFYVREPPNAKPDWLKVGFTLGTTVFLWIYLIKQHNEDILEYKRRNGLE
UniProt Q9UN36: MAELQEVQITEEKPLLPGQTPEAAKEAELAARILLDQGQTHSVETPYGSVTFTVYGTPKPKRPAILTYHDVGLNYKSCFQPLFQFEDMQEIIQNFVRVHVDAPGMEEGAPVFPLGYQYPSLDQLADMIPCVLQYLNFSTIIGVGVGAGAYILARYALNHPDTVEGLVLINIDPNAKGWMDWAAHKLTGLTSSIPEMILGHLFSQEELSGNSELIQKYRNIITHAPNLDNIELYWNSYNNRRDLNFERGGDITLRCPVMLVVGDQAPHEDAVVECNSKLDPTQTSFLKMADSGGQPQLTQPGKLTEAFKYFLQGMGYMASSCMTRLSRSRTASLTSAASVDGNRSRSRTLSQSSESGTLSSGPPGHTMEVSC
UniProt Q13952: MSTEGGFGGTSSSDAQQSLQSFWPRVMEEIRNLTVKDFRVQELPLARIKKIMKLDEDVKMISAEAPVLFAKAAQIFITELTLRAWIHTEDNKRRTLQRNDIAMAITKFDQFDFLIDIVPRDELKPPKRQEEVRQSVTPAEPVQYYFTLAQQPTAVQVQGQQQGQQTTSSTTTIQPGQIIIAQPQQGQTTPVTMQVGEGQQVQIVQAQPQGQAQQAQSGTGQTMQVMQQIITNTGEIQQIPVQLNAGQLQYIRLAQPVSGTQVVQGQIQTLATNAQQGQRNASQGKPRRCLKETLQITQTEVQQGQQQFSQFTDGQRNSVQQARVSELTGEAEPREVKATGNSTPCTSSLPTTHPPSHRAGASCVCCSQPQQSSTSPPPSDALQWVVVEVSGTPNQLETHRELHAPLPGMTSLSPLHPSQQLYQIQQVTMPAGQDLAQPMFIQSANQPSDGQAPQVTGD
UniProt O94916: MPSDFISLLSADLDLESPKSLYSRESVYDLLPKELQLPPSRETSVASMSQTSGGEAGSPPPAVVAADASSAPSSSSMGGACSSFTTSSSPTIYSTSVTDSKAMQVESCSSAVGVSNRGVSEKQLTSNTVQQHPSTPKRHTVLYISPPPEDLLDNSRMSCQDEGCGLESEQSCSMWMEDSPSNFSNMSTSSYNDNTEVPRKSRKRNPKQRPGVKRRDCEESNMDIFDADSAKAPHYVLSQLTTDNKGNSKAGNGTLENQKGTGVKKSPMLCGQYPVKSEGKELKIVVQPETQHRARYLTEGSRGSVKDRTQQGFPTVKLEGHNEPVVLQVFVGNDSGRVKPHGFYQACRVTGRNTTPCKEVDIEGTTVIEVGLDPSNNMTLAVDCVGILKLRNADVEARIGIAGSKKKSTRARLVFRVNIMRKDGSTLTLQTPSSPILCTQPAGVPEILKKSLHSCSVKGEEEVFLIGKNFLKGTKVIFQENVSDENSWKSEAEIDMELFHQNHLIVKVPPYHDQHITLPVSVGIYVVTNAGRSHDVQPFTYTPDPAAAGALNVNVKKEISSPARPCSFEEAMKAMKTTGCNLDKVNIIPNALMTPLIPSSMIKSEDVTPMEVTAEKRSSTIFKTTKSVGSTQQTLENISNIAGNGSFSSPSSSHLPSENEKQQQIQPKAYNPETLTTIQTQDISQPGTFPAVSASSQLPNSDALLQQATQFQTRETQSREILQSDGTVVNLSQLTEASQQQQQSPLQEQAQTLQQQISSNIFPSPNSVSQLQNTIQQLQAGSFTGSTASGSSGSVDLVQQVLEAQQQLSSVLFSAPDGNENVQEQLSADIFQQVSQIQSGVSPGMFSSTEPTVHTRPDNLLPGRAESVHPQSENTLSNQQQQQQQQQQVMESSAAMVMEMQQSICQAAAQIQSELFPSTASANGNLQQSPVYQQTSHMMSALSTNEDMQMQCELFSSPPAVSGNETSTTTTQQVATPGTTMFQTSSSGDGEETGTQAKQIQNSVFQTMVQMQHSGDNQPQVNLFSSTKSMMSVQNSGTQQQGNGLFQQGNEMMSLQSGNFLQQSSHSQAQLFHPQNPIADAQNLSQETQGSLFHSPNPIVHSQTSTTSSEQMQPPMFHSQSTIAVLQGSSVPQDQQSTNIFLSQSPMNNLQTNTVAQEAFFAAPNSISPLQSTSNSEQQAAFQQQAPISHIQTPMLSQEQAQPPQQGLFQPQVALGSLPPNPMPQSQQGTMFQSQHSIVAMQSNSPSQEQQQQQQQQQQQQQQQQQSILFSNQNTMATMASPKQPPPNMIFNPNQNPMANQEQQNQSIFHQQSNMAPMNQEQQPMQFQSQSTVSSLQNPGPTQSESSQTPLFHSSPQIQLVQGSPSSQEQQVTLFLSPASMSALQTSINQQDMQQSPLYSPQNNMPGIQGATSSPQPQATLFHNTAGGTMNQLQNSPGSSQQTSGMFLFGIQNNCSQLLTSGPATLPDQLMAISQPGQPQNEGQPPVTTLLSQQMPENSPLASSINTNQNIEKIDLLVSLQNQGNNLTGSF
UniProt Q0ZGT2: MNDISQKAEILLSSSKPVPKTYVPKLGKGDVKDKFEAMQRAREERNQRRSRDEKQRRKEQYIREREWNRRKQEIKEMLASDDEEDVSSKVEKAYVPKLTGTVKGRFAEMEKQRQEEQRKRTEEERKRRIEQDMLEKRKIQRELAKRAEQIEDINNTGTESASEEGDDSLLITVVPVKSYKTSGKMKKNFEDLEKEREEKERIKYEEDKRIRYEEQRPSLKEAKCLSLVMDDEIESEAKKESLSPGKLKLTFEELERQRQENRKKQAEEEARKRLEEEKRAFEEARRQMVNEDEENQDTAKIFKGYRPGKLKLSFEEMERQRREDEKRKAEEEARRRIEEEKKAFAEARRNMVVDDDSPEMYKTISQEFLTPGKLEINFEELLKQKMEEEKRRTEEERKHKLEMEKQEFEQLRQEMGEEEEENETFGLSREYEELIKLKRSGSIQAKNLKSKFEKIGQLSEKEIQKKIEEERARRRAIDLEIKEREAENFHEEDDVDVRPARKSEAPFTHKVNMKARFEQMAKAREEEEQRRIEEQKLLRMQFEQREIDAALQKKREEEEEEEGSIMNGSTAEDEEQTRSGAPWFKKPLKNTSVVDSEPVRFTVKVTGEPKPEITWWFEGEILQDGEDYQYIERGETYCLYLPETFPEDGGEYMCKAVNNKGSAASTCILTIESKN

Columns and labels:
Assay in all cases: log2 fold change, soluble protein after heating vs DMSO (PISA); higher = thermal stabilisation; K562 lysate, 10 uM; active = over 0.2 and 3.5 SD of the protein, either way, in both replicates (recomputed)
[1] = compound: NCC(=O)Nc1ccc(-n2nc(C(F)(F)F)cc2-c2ccc3c(ccc4ccccc43)c2)cc1
Method in brief: (§1)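 K562 pellets were dounce-homogenised in PBS pH 7.4 containing 1 mM MgCl2, and the crude extract, at 1 mg/mL protein, was exposed to 10 μM compound for 30 min. Aliquots were heated for 3 min across 48°C-58°C, pooled, brought to 0.5% NP-40 at 4°C and spun at 21,000xg for 90 min, with the supernatant taken as soluble protein. TMTpro 16plex LC-MS/MS with equalised channel sums quantified that protein. Values are log-two fold changes in thermal stability relative to solvent controls, taken from duplicates.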

[2] = compound: O=C(CCCCCCC(=O)Nc1ccccc1)NO [vorinostat]
Method in brief: as §1

[3] = compound: O=C(O)c1ccc2c(c1)nc(Nc1cccc(Cl)c1)c1ccncc12 [silmitasertib]
Method in brief: as §1

[4] = compound: O=C1NC(=O)C(c2cnc3ccccn23)=C1c1cn2c3c(cc(F)cc13)CN(C(=O)N1CCCCC1)CC2
Method in brief: as §1

[5] = compound: c1cn2cc(-c3ccc4cn[nH]c4c3)nc(Nc3ccc(N4CCOCC4)cc3)c2n1 [entospletinib]
Method in brief: as §1

Measured: log2 fold change

NDUFA8 (UniProt P51970)
inactive: [1] -0.009 | [2] 0.112 | [3] -0.006 | [4] -0.026 | [5] -0.122

NFE2L2 (UniProt Q16236)
inactive: [4] -0.003

NKTR (UniProt P30414)
inactive: [1] 0.068 | [2] -0.029 | [3] 0.094 | [5] -0.065

NIFK (UniProt Q9BYG3)
inactive: [1] 0.063 | [2] 0.063 | [3] -0.001 | [4] 0.047 | [5] 0.044

NGRN (UniProt Q9NPE2)
inactive: [1] 0.012 | [2] 0.193 | [3] -0.05 | [4] -0.069 | [5] -0.005

NLRP1 (UniProt Q9C000)
inactive: [2] 0.241 | [3] -1.56 | [4] 0.787 | [5] 0.438

Copied from the entries so far (two entries):
NGRN (UniProt Q9NPE2)
inactive: [1] 0.012 | [2] 0.193 | [3] -0.05 | [4] -0.069 | [5] -0.005

NLRP1 (UniProt Q9C000)
inactive: [2] 0.241 | [3] -1.56 | [4] 0.787 | [5] 0.438

Going on with the list:

NFIL3 (UniProt Q16649)
inactive: [5] 0.122

NDFIP2 (UniProt Q9NV92)
inactive: [4] 0.127

NFIX (UniProt Q14938)
inactive: [5] -0.037

NDUFB9 (UniProt Q9Y6M9)
inactive: [1] -0.018 | [2] 0.123 | [3] -0.004 | [4] 0.006 | [5] -0.026

NEK1 isoform 3 (UniProt Q96PY6)
inactive: [1] 0.003 | [2] 0.066 | [3] -0.052 | [4] 0.013 | [5] -0.065

NDE1 isoform 1 (UniProt Q9NXR1)
inactive: [1] -0.017 | [2] 0.025 | [3] -0.007 | [4] -0.041 | [5] 0.023

NKIRAS1 (UniProt Q9NYS0)
inactive: [1] 0.091 | [2] -0.126 | [3] -0.057 | [5] -0.05

NEBL (UniProt O76041)
inactive: [1] 0.056 | [2] 0.207 | [3] 0.052 | [4] -0.026 | [5] -0.018

NIN isoform 7 (UniProt Q8N4C6)
inactive: [2] 0.089 | [3] 0.07 | [4] -0.014

NEPRO (UniProt Q6NW34)
inactive: [2] 0.012 | [3] 0.03 | [4] -0.061 | [5] -0.031

NEK5 (UniProt Q6P3R8)
inactive: [1] 0.038 | [5] 0

NECAP2 (UniProt Q9NVZ3)
inactive: [1] 0 | [2] 0.03 | [3] -0.006 | [4] 0.007 | [5] 0.019

NFATC4 isoform 2 (UniProt Q14934)
inactive: [1] 0.207 | [4] 0.076 | [5] 0.019

NEK9 (UniProt Q8TD19)
active: [2] -0.45
inactive: [1] -0.03 | [3] 0.052 | [4] -0.013 | [5] 0.013

NEIL2 (UniProt Q969S2)
inactive: [2] 0.055 | [3] 0.073

NDUFS4 (UniProt O43181)
inactive: [1] 0.005 | [2] 0.197 | [3] 0.007 | [4] -0.03 | [5] -0.013

NHP2 (UniProt Q9NX24)
inactive: [1] 0.029 | [2] 0.105 | [3] 0 | [4] -0.046 | [5] -0.005

NDUFAF6 (UniProt Q330K2)
inactive: [2] -0.053 | [3] 0.102 | [4] -0.09 | [5] -0.067

NEMP1 (UniProt O14524)
inactive: [4] -0.077

NGDN (UniProt Q8NEJ9)
inactive: [2] -0.293 | [3] 0.056 | [4] -0.137 | [5] -0.149

NENF (UniProt Q9UMX5)
inactive: [1] 0.01 | [2] 0.142 | [3] -0.018 | [4] 0.006 | [5] -0.031

NDUFC1 (UniProt O43677)
inactive: [2] 0.095 | [3] 0.101 | [5] -0.055

NDRG2 isoform 6 (UniProt Q9UN36)
inactive: [1] -0.029 | [2] 0.037 | [3] 0.083 | [5] 0.075

NIPSNAP1 (UniProt Q9BPW8)
inactive: [1] 0.065 | [2] 0.122 | [3] -0.004 | [4] 0.024 | [5] 0.002

NKAPD1 isoform 2 (UniProt Q6ZUT1)
inactive: [2] 0.079 | [3] 0.034

NFYC isoform 3 (UniProt Q13952)
inactive: [2] 0.15 | [3] 0.363

NFAT5 isoform 4 (UniProt O94916)
inactive: [4] -0.062

NLRX1 (UniProt Q86UT6)
inactive: [1] -0.325 | [2] 0.226 | [3] -0.231 | [5] 0.089

NKRF isoform 2 (UniProt O15226)
inactive: [1] 0.064 | [2] 0.033 | [3] 0.061 | [4] 0.053 | [5] -0.01

NDUFAB1 (UniProt O14561)
inactive: [1] -0.038 | [2] 0.226 | [3] -0.139 | [4] 0 | [5] -0.12

NDUFA2 (UniProt O43678)
inactive: [1] -0.025 | [2] 0.092 | [3] -0.006 | [4] 0.01 | [5] -0.007

NEXN (UniProt Q0ZGT2)
inactive: [1] 0.144 | [2] -0.335 | [3] -0.038 | [5] 0.042
